{"source": "patent US7045516B1", "about": "“Benzoxazole derivatives and drugs containing the same as the active ingredient” (Koichi Shudo, priority 1998, dated 2006)", "molecular_target": "T1, 5-HT3 receptor (Cavia porcellus, UniProt O70212)", "T1 construct": "From ileum of Hartley male guinea pigs (500 g to 800 g) longitudinal muscle samples of about 20 mm were prepared; from tissue; host or cells: guinea pig ileum longitudinal muscle", "T1 sequence (O70212 20-490)": "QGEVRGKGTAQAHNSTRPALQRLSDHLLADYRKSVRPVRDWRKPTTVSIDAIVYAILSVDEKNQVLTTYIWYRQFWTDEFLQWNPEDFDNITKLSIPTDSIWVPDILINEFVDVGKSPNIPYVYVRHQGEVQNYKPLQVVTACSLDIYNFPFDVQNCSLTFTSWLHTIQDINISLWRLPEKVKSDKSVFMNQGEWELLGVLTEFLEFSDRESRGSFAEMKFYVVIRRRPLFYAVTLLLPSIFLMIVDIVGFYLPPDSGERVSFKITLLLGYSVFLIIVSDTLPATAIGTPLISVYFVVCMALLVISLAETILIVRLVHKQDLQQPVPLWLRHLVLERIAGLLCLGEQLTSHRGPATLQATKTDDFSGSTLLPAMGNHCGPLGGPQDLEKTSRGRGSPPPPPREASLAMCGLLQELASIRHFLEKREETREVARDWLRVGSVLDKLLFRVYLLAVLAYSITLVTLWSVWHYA", "test": "Test for 5-HT3 receptor activating action and antagonism, guinea pig ileum longitudinal muscle contraction", "assay_type": "cell-based", "details": "ratio of maximum contraction by compound relative to maximum contraction with 10 μM 5-HT (defined as 1)", "method": "From ileum of Hartley male guinea pigs (500 g to 800 g) longitudinal muscle samples of about 20 mm were prepared. The samples were suspended at a resting tension of about 0.5 g in Magnus tubes, and isometric contraction reaction was measured. The samples were treated beforehand twice with 0.3 μM of 5-HT for 1 hour to desensitize the 5-HT4 receptors, and then given with 5-HT at a concentration of 0.1 to 30 μM to examine dose-dependent contraction reaction via the 5-HT3 receptors. […] The index of the 5-HT3 receptor activating action, i.a., is represented as a ratio of the maximum reaction obtained by each compound relative to the maximum contraction reaction obtained with 10 μM of 5-HT, which is defined to be 1. The index of strength of binding with the 5-HT3 receptor, pD2, is represented with a negative logarithmic value of a concentration (molar concentration) that gave 50% maximum contraction reaction for each compound. As for the antagonistic activity of each compound against the 5-HT3 receptor, inhibitory ratio was calculated, which represents a ratio of contraction obtained by applying 10 μM of 5-HT to a sample treated beforehand with 10 μM of each compound relative to the contraction obtained by applying 10 μM of 5-HT to an untreated sample.", "note": "At least one structure is not confirmed: it was looked up by name or label, or the drawing left a doubt.", "data": [{"molecule": "CCc1cc(Cl)cc2nc(N3CCCNCC3)oc12", "note": "[Example 4, 5-Chloro-7-ethyl-2-(1-homopiperazinyl) benzoxazole]", "values": [{"measurement": "Activating action i.a.", "result": 0.07}]}]}
